The nature of this test: qHTS Assay to Find Inhibitors of Chronic Active B-Cell Receptor Signaling. The conditions noted are these: ABC-DLBCL IkBa-CBG/CBR reporter, luminescence ratio (green luciferase fused to IkBa over red control in TMD8 lymphoma cells), 4 h. In a few lines:
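TMD8 ABC-DLBCL cells carrying doxycycline-inducible green luciferase fused to IkappaBalpha plus unfused red luciferase were exposed to compounds (up to 46 uM) for 4 hrs at 37C. Activity came from the overlap-corrected green/red luminescence ratio.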

The mark [1] stands for this setting: measured here: CBR red luminescence, cell number.
[2] abbreviates: measured here: IkBa-CBG green luminescence.

Some of the results follow. Shown are side measurements of this screen, not its main read-out; they come without a call. Most of these compounds were active or inconclusive in the main read-out, so they are no random draw. The note in brackets gives the kind of curve behind each potency; many fits are weak.

Our source for the AC50 values is PubChem BioAssay AID493014 (National Center for Advancing Translational Sciences (NCATS), 2011).

Broadly, the AC50 is the concentration at which the activity in the assay is half-maximal.

Turning to `COc1ccc(-c2nc(C#N)c(NCc3ccccc3Cl)o2)cc1OC`, the AC50 under setting [1] is 29.1 µM [falling, single point].
Still for that read-out and setting: with `Cc1cc(C)n(CC(O)Cn2c3ccc(Br)cc3c3cc(Br)ccc32)c(=O)n1` (stereo not drawn) the figure was 9.2 µM [falling, partial curve, poor fit]; with `C/C(=N\NC(=O)c1nnn(-c2nonc2N)c1-c1cccs1)c1ccc(C)cc1`, 7.08 µM [rising, full curve, poor fit]; with `CC(=C\C(=O)O)/C(=C/c1ccccc1)C(=O)O`, 17.8 µM [rising, partial curve].
On the same count and under the same terms, with `CCc1ccc(OCC(=O)OCC(=O)c2ccc3c(c2)NC(=O)CO3)cc1` the figure was 29.1 µM [rising, single point].
On the same count and under the same terms, with `CC(NC(=O)[C@H](NC(=O)[C@@H]1Cc2ccccc2CN1)c1ccccc1)c1ccccc1` (stereo partly drawn) the figure was 11.2 µM [falling, partial curve, poor fit].
As to `O=C(Nc1ccc(S(=O)(=O)N2CCCC2)cc1)c1ccc(Cl)nc1`, the AC50 under setting [1] is 14.6 µM [falling, partial curve].
In the case of `COc1ccccc1C(=O)Nc1nnc(-c2ccc(F)cc2)o1`, the AC50 under setting [1] was 0.0082 µM [falling, full curve, poor fit].
On the same count and under the same terms, with `CC(C)CCNC(=O)C(=O)Nc1ccccc1` the figure was 2 µM [falling, full curve]; with `CC(/C=N/NC(=O)c1ccc(Cn2cc([N+](=O)[O-])cn2)o1)=C\c1ccccc1`, 1.12 µM [falling, partial curve, poor fit]; with `c1ccc(-c2ccc(-c3csnn3)cc2)cc1`, 11.2 µM [rising, partial curve, poor fit].
Still for that read-out and setting: as for `CC(=O)c1ccc(Sc2ccccc2N)c([N+](=O)[O-])c1`, the figure is 8.91 µM [rising, partial curve, poor fit].
Same read-out and setting: with `CCOc1ccc(S(=O)(=O)NCCC(=O)OCC(=O)c2ccc[nH]2)cc1` the figure was 1.26 µM [rising, full curve, poor fit]; with `COc1cc(NC(=O)c2cc3c(Cl)nc4ccccc4c3s2)cc(OC)c1OC`, 0.517 µM [rising, full curve, poor fit]; with `CC(C)(C)C(=O)C(Cl)C(=O)Nc1ccccc1` (stereo not drawn), 0.1 µM [falling, full curve, poor fit].
For `O=C(Nc1c(F)cc(F)cc1Br)c1cc(-c2ccco2)on1`, the AC50 under setting [1] was 0.562 µM [falling, full curve, poor fit].
Same read-out and setting: with `CCCCc1nnc(NC(=O)C=C(C)C)s1` the figure was 32.6 µM [rising, single point]; with `COc1ccc(C2(O)CCN(C(=O)c3ccc4c(c3)OCO4)CC2)cc1`, 20.6 µM [rising, single point]; with `O=Cc1c[nH]c2cccc(OCc3ccccc3)c12`, 18.4 µM [falling, single point].
Still for that read-out and setting: with `C/C(=N\NC1=N[C@H]2CS(=O)(=O)C[C@H]2S1)c1ccccc1` the figure was 35.5 µM [rising, single point]; with `CC(C)(C)c1cc(C(=O)NNc2cc(C(F)(F)F)ccc2Cl)n(Cc2ccccc2)n1`, 35.5 µM [falling, single point]; with `O=S(=O)(NCCCCCNS(=O)(=O)c1ccccc1)c1ccccc1`, 1.64 µM [falling, partial curve, poor fit].
As for `NC(=O)SCC(=O)Nc1ccc(Cl)cc1`, the AC50 under setting [1] is 10 µM [falling, partial curve, poor fit].
On the same count and under the same terms, with `C[C@@H](NC(=O)[C@@H]1Cc2ccccc2CN1)C(=O)Nc1ccc2c(c1)OCCO2` the figure was 11.2 µM [falling, partial curve].
Still for that read-out and setting: with `O=C(CSc1ncn[nH]1)N1N=C(c2ccc(Cl)cc2)CC1c1ccco1` (stereo not drawn) the figure was 25.1 µM [falling, single point]; with `COc1cccc(N2CC(NC(=O)CCCc3ccccc3)CC2=O)c1` (stereo not drawn), 1.78 µM [rising, partial curve].
On the same count and under the same terms, as for `COc1ccc(OC)c(/C=N/NC(=O)c2[nH]nc3c2CCc2ccccc2-3)c1`, the figure is 10.3 µM [falling, partial curve, poor fit]; as for `CCCCN1CC2([N+](=O)[O-])C=CC(=O)C([N+](=O)[O-])(C1)C2CC(=O)c1ccccc1` (stereo not drawn), 11.6 µM [rising, partial curve, poor fit].
In the case of `Cc1ccc(C2=Nc3ccccc3SC(c3cccc([N+](=O)[O-])c3)C2)cc1` (stereo not drawn), the AC50 reads like this: under setting [1], 20 µM [rising, single point]; under setting [2], 35.5 µM [falling, single point].
Regarding `CCOC(=O)c1c(-c2ccccc2)n(C)c2ccc(O)cc12`, the AC50 under setting [1] is 9.2 µM [rising, partial curve, poor fit].
On to `COC(CNC(=O)c1ccc2c3c(onc13)-c1ccccc1C2=O)OC`, for which the AC50 was 35.5 µM [falling, single point] under setting [1] and 7.08 µM [rising, partial curve, poor fit] under setting [2].
Regarding `O=C(/C=C/c1ccc(F)cc1)Nc1ccc2[nH]c(=O)[nH]c2c1`, the AC50 under setting [1] was 35.5 µM [falling, single point].
The same measure, in the same setting: as for `Cc1cc(=O)oc2ccc(OCC(=O)NCc3ccco3)cc12`, the figure is 2.06 µM [rising, partial curve, poor fit]; as for `COc1cccc(Nc2sc(C(=O)c3ccc(F)cc3)c(N)c2C(=O)NCc2ccc(Cl)cc2)c1`, 35.5 µM [falling, single point].
For `CCOC(=O)c1ccc(NC(=O)CC2SC3=NCCN3C2=O)cc1` (stereo not drawn), the AC50 under setting [1] was 0.708 µM [rising, full curve, poor fit].
Still for that read-out and setting: with `Cc1cccc(N2CSC3=C(C#N)C(c4ccc(C)o4)CC(=O)N3C2)c1` (stereo not drawn) the figure was 12.6 µM [rising, single point].
In the case of `Cc1cccc2nc(CSc3ccc(Cl)cc3)cn12`, the AC50 under setting [1] was 8.91 µM [falling, partial curve].
On the same count and under the same terms, as for `S=C(NCCc1ccccc1)NC1CC1`, the figure is 8.2 µM [rising, partial curve, poor fit]; as for `COc1ccc(NC(=O)NNC(=O)c2ccc(-c3ccccc3)cc2)c(OC)c1`, 12.6 µM [rising, partial curve].
On the same count and under the same terms, with `Cc1cccc(C)c1NC(=O)c1cn(-c2ccccc2)nc1-c1ccccc1` the figure was 3.66 µM [rising, full curve]; with `CCOCCCNc1ncnc2c1cnn2-c1ccc(C)c(C)c1`, 3.98 µM [falling, full curve, poor fit]; with `CN(C)c1ccc(/C=N/N(CCC#N)C2=NS(=O)(=O)c3ccccc32)cc1`, 35.5 µM [rising, single point].
Still for that read-out and setting: as for `CCOC(=O)Cc1csc(SCC(=O)Nc2sc3c(c2C(N)=O)CCC3)n1`, the figure is 14.1 µM [falling, single point].
Turning to `Cc1ccc(S(=O)(=O)N2CCN(C(=O)CSc3nnnn3C)C2)cc1`, the AC50 under setting [1] is 0.00461 µM [rising, full curve, poor fit].
Turning to `COC(=O)c1cc2ccsc2n1CC(=O)Nc1cc(C)cc(C)c1`, under setting [1], the AC50 was 5.8 µM [falling, partial curve, poor fit].
Still for that read-out and setting: with `COc1ccc(CCN2C(=O)NC(NS(=O)(=O)c3ccc(Cl)cc3)(C(F)(F)F)C2=O)cc1OC` (stereo not drawn) the figure was 2.82 µM [rising, single point]; with `Cc1nnc2ccc(-c3ccc(NC(=O)c4ccc(Cl)nc4)cc3)nn12`, 10 µM [rising, partial curve, poor fit]; with `COCC(C)n1c(SCC(=O)Nc2nccs2)nc2ccccc2c1=O` (stereo not drawn), 29.1 µM [rising, single point].
Consider `CC(C)CC(=O)/C(=C\c1ccc(Cl)cc1Cl)n1cncn1`, for which the AC50 is 20.6 µM [falling, partial curve] under setting [1] and 29.1 µM [rising, single point] under setting [2].
With `COc1ccc(Cl)cc1S(=O)(=O)n1cnc2ccccc21`, the AC50 under setting [1] was 1.64 µM [falling, partial curve, poor fit].
Same read-out and setting: with `CCOc1ccc(N2C(=O)C(Cl)=C(Nc3ccccc3O)C2=O)cc1` the figure was 0.184 µM [falling, full curve, poor fit]; with `CC1=CC(C)(C)N(C)C(=O)N1c1ccc(Cl)cc1`, 3.98 µM [rising, full curve, poor fit]; with `c1ccc(-c2ccccc2OCCOCCN2CCc3ccccc3C2)cc1`, 22.4 µM [falling, single point].
The same measure, in the same setting: with `COc1ccc(C(=O)OCC(=O)Nc2cc(C)c(C)cc2[N+](=O)[O-])cc1` the figure was 6.51 µM [rising, single point]; with `CCOC(=O)C1(Cc2cccc(Cl)c2)CCCN(C(=O)c2c(CC)noc2C)C1` (stereo not drawn), 35.5 µM [falling, single point].
Consider `CC(/C=N/NC(=O)c1n[nH]c2c1CCC2)=C\c1ccccc1`, for which the AC50 was 2.91 µM [rising, full curve] under setting [1] and 4.61 µM [falling, partial curve, poor fit] under setting [2].
For `O=C(CN1CCN(S(=O)(=O)c2ccc(Br)cc2)CC1)N/N=C/c1ccc(Cl)c([N+](=O)[O-])c1`, the AC50 under setting [1] was 29.1 µM [falling, single point].
For the compound `COC(=O)c1c(NC(=O)CN2CCC3(O)CCCCC3C2c2ccc(F)cc2)sc(C)c1C` (stereo not drawn), the concentration at half-maximal activity (AC50) under setting [1] was 16.4 µM [falling, single point].
In the case of `COC(=O)CCC(=O)Nc1cccc(Cl)c1`, the AC50 is 5.8 µM [rising, full curve, poor fit] under setting [1] and 10.3 µM [rising, partial curve, poor fit] under setting [2].
As for `Cc1ccc(NC(=O)C(CC(=O)O)C2CCCO2)c(C)c1` (stereo not drawn), under setting [1], the AC50 was 31.6 µM [rising, single point].
Take `CCCCOc1ccc(C(=O)C(CN2CCOCC2)c2ccccc2)cc1` (stereo not drawn): the AC50 reads like this: under setting [1], 18.4 µM [falling, single point]; under setting [2], 20.6 µM [rising, single point].
For `COc1cccc2c1OCC/C2=N\NC(=O)COc1ccccc1C`, the AC50 under setting [1] is 7.31 µM [rising, partial curve, poor fit].
